For assay [1], the target named is Paf1C core (Ctr9-ΔC913, Paf1-ΔC361, Leo1-ΔN118-ΔC376 and Cdc73) (S. cerevisiae) (UniProt P89105+P38351+P38439+Q06697). Briefly: co-purification after coexpression (Ni-NTA, cation exchange, SEC); subunits coexpressed in E. coli from three vectors, cells colysed; Ni-NTA (hexahistidine tag on Ctr9), HiTrap SP cation exchange, Superose 6 size exclusion; SDS-PAGE, subunits confirmed by mass spectrometry. On the technique in general: In gel filtration, larger molecules generally elute earlier.

Amino acid sequences for entries named in this document (tags omitted). A change or cut given only in a name is not applied to a line headed by its entry.
UniProt Q06697: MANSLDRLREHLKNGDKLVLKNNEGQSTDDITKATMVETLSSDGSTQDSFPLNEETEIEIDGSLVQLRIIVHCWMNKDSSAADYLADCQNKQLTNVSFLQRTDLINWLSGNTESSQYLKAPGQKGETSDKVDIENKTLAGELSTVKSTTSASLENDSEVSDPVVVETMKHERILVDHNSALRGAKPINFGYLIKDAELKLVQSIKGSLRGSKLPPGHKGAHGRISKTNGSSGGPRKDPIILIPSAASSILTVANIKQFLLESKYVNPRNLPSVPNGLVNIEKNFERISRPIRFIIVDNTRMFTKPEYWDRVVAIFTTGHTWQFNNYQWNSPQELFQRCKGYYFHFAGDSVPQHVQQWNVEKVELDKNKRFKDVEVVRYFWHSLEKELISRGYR

The next assay deals with T1, Ctr9-ΔC913 (S. cerevisiae, UniProt P89105 1-913).
T1 construct: Ctr9, S. cerevisiae, variant lacking 164 amino acids at its C terminus (Ctr9-ΔC913); also called Ctr9 (in the Pol II-Paf1C-TFIIS EC); source: E. coli BL21 CodonPlus(DE3)RIL, coexpressed with the other subunits; in lysate and purified as part of Paf1C-Ctr9-ΔC913
T1 sequence (looked up): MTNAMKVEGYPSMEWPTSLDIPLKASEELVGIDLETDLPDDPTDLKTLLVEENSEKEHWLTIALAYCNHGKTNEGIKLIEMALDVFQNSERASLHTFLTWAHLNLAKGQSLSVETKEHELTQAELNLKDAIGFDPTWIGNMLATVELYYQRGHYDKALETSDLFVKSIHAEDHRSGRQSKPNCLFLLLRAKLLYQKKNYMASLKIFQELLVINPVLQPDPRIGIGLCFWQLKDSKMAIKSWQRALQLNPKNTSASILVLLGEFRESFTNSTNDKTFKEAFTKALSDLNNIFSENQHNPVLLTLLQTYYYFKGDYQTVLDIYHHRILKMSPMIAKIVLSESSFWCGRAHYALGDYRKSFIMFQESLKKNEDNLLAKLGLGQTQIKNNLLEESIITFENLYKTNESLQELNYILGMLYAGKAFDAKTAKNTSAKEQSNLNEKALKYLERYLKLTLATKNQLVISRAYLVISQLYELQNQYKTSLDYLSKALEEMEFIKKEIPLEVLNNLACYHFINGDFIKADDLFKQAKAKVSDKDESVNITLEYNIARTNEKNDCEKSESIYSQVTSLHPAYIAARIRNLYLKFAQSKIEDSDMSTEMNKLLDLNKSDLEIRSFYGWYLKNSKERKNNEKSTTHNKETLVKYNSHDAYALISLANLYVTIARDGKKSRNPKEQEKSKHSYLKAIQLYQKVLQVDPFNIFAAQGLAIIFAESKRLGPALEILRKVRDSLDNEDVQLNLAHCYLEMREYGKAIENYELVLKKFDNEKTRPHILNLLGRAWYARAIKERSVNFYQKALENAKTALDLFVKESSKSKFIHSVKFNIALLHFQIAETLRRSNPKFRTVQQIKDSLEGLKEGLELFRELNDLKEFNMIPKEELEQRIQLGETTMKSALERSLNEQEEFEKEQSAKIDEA
The assay is described as above.

Results are given in words; binding and its absence hold for the method and conditions named. Some results given as binding are weak or reduced against the parent protein; the word gives no strength.

The results in this text go back to PMC5467213, “Architecture of the RNA polymerase II-Paf1C-TFIIS transcription elongation complex” (Nature Communications, 2017).

Turning to “Rtf1-ΔN441 (C-terminal region of Rtf1) (from UniProt P53064 441-558) (domain or fragment)”, the binding entry in assay [1] was “binds”.

B1: Paf1-ΔC361 (domain or fragment, UniProt P38351 1-361)
chain: MSKKQEYIAPIKYQNSLPVPQLPPKLLVYPESPETNADSSQLINSLYIKTNVTNLIQQDEDLGMPVDLMKFPGLLNKLDSKLLYGFDNVKLDKDDRILLRDPRIDRLTKTDISKVTFLRRTEYVSNTIAAHDNTSLKRKRRLDDGDSDDENLDVNHIISRVEGTFNKTDKWQHPVKKGVKMVKKWDLLPDTASMDQVYFILKFMGSASLDTKEKKSLNTGIFRPVELEEDEWISMYATDHKDSAILENELEKGMDEMDDDSHEGKIYKFKRIRDYDMKQVAEKPMTELAIRLNDKDGIAYYKPLRSKIELRRRRVNDIIKPLVKEHDIDQLNVTLRNPSTKEANIRDKLRMKFDPINFATV
Turning to B1, in the assay with Ctr9-ΔC913, the binding entry is “binds”.

B2: Leo1-ΔN118-ΔC376 (domain or fragment, UniProt P38439 118-376)
chain: MYTRKFYGEDANNFSDQDETTHTFKEENVELVRHIIPSKANVNETASHNEIFYARIPNFLTIDPIPFDPPSFEAKVNERASNSASREDQLDDRLIDENTVRWRYSRDKDQHVFKESNTQIVQWSDGTYSLKVGEECTDILVNDTSNTFLTVSHDQQELIQCYEGGEIKKTLMFIPTSTNSKIHQKLSKAVIRRNQRQSKGPGTYIVSMDPEVEKKELERKQSQILRDRRRRQLKEKEKQESPDAAFETGFRKQNSPTTY
Turning to B2, the binding entry with Ctr9-ΔC913 is recorded as “binds”.
